“And” between values parts separate entries of the source, which are not always exact repeats. Equal entries are not always repeated. Structures can show the parent of a compound that is named as a salt. The list shows a part of the results. Single values are uncertain here, since repeats match poorly. Starred links: 1 amine or outer side, 2 acyl side, 3 side chain; linkers in the order of their positions; H or OH if unused. Positions of bridges follow the written chain, without caps; N, C: chain ends. Non-standard residues stand in square brackets, D forms with d. Residues, ends and D or L forms follow the SMILES beside them. Chains are numbered I, II in the order given. Actinocin(9to1) = Cc1c2oc3c(C)ccc(C(=O)[*:1])c3nc-2c(C(=O)[*:2])c(N)c1=O; NMeV = CN[C@H](C(=O)O)C(C)C; Sar = CNCC(=O)O
These molecules were tested on Brugia pahangi adult female (assay: motility inhibition on day 3 relative to DMSO vehicle; higher = more active). Settings: 10 µM; 3 days.

SMILES | motility inhibition on day 3
CN(C)CCC(c1ccccc1)c1ccccn1 (stereo not given) [pheniramine maleate] | 8.93%
CCSc1ccc2c(c1)N(CCCN1CCN(C)CC1)c1ccccc1S2 [Thiethylperazine maleate] | 11.2%
C#CC1(O)CC[C@H]2[C@@H]3CCC4=CC(=O)CC[C@@H]4[C@H]3CC[C@@]21CC (mixture of isomers) [norgestrel] | 42% and 32.9%
CC(=O)OCC(=O)[C@@]12OC3(CCCC3)O[C@@H]1C[C@H]1[C@@H]3CCC4=CC(=O)C=C[C@]4(C)[C@@]3(F)[C@@H](O)C[C@@]12C [amcinonide] | < 0%
C=COCC(F)(F)F [fluroxene] | 31.1%
Cc1oc(=O)oc1CN1CCN(c2cc3c(cc2F)c(=O)c(C(=O)O)c2n3C(C)S2)CC1 (stereo not given) [prulifloxacin] | 13.9%
N[C@@H](CC(=O)N1CCn2c(nnc2C(F)(F)F)C1)Cc1cc(F)c(F)cc1F [sitagliptin monophosphate monohydrate] | 11.6%
CC#CCC(C)[C@H](O)/C=C/[C@@H]1[C@H]2C/C(=C/CCCC(=O)O)C[C@H]2C[C@H]1O (stereo not given in full) [Iloprost] | 20.5%
N=C(N)c1ccc(N=NNc2ccc(C(=N)N)cc2)cc1 [diminazene aceturate] | < 0%
O=C(Nc1ccccc1)OCC(CN1CCCCC1)OC(=O)Nc1ccccc1 (stereo not given) [diperodon hydrochloride] | 8.79%
CO/N=C(\C(=O)N[C@@H]1C(=O)N2C(C(=O)O)=C(CSC(=O)c3ccco3)CS[C@H]12)c1csc(N)n1 [ceftiofur hydrochloride] | < 0%
C[C@@H]1O[C@@H](OC[C@H]2O[C@@H](Oc3c(-c4ccc(O)c(O)c4)oc4cc(O)cc(O)c4c3=O)[C@H](O)[C@@H](O)[C@@H]2O)[C@H](O)[C@H](O)[C@H]1O [rutin] | 1.69%
CCCC(=O)Nc1ccc(OCC(O)CNC(C)C)c(C(C)=O)c1 (stereo not given) [acebutolol hydrochloride] | < 0%
CCCCC[C@H](O)CC[C@@H]1[C@H]2Cc3cccc(OCC(=O)O)c3C[C@H]2C[C@H]1O [Treprostinil] | 32.8%
CC1=CC(=O)c2ccccc2C1=O [menadione] | 98.9%
CCCCC[C@](C)(O)/C=C/[C@@H]1[C@@H](C/C=C\CCCC(=O)O)[C@@H](O)C[C@H]1O [Carboprost] | < 0%
CC(=O)/N=c1/sc(S(N)(=O)=O)nn1C [methazolamide] | 6.94%
N=C(N)N1CCc2ccccc2C1 [Debrisoquin sulfate] | 17.1%
CCCc1nc2c(C)cc(-c3nc4ccccc4n3C)cc2n1Cc1ccc(-c2ccccc2C(=O)O)cc1 [telmisartan] | 1.91%
COCCCOc1cc(C[C@@H](C[C@H](N)[C@@H](O)C[C@H](C(=O)NCC(C)(C)C(N)=O)C(C)C)C(C)C)ccc1OC [aliskiren hemifumarate] | 14.8%
C#C[C@]1(OC(C)=O)CC[C@H]2[C@@H]3CCC4=CC(=O)CC[C@@H]4[C@H]3CC[C@@]21C [norethindrone acetate] | 53.3%
CCCCOC(=O)c1ccc(O)cc1 [butyl paraben] | 24.4%

SMILES | motility inhibition on day 3
CCCCC1C(=O)N(c2ccccc2)N(c2ccccc2)C1=O [Phenylbutazone] | 19.3%
O=C(CCCCC(=O)Nc1c(I)cc(I)c(C(=O)O)c1I)Nc1c(I)cc(I)c(C(=O)O)c1I [iodipamide] | 30.5%
CNCC[C@@H](Oc1ccccc1C)c1ccccc1 [atomoxetine hydrochloride] | < 0%
Cc1ccc(C(=O)C(C)CN2CCCCC2)cc1 (stereo not given) [tolperisone hydrochloride] | 7.82%
COCCCOc1ccnc(C[S+]([O-])c2nc3ccccc3[nH]2)c1C (stereo not given) [rabeprazole sodium] | < 0%
CC(Cc1ccc(O)c(O)c1)C(C)Cc1ccc(O)c(O)c1 (stereo not given) [Nordihydroguaiaretic acid] | < 0%
CC[C@H](C)C(=O)O[C@H]1C[C@H](O)C=C2C=C[C@H](C)[C@H](CC[C@@H](O)C[C@@H](O)CC(=O)O)[C@H]21 [pravastatin sodium] | 13.7%
CC1=C(C(=O)O)N2C(=O)[C@@H](NC(=O)[C@H](N)c3ccccc3)[C@H]2SC1 [cephalexin] | 12.6%
CC(C)(C)NCC(O)COc1cccc2c1CC(O)C(O)C2 (stereo not given) [nadolol] | < 0%
O=C(c1cccnc1)N1CCOCC1 [nicopholine] | 38.3%
OCC(S)CS (stereo not given) [dimercaptopropanol] | < 0%
COc1ccc2cc3[n+](cc2c1OC)CCc1cc2c(cc1-3)OCO2 [berberine chloride] | 16.5%
Cc1c2oc3c(C)ccc(C(=O)N[C@@H]4C(=O)N[C@H](C(C)C)C(=O)N5CCC[C@H]5C(=O)N(C)CC(=O)N(C)[C@@H](C(C)C)C(=O)O[C@@H]4C)c3nc-2c(C(=O)N[C@@H]2C(=O)N[C@H](C(C)C)C(=O)N3CCC[C@H]3C(=O)N(C)CC(=O)N(C)[C@@H](C(C)C)C(=O)O[C@@H]2C)c(N)c1=O [dactinomycin] (I: T[dV]P[Sar][NMeV] / II: T[dV]P[Sar][NMeV]; ester I:1-I:C, II:1-II:C; linker I:N-II:N via Actinocin(9to1)) | 13.5%
Cc1c2oc3c(C)ccc(C(=O)N[C@@H]4C(=O)N[C@H](C(C)C)C(=O)N5CCC[C@H]5C(=O)N(C)CC(=O)N(C)[C@@H](C(C)C)C(=O)O[C@@H]4C)c3nc-2c(C(=O)N[C@@H]2C(=O)N[C@H](C(C)C)C(=O)N3CCC[C@H]3C(=O)N(C)CC(=O)N(C)[C@@H](C(C)C)C(=O)O[C@@H]2C)c(N)c1=O (I: T[dV]P[Sar][NMeV] / II: T[dV]P[Sar][NMeV]; ester I:1-I:C, II:1-II:C; linker I:N-II:N via Actinocin(9to1)) | 16.2%
COc1ccc2c(c1)c(CC(=O)OCC(=O)O)c(C)n2C(=O)c1ccc(Cl)cc1 [acemetacin] | < 0%
Cc1nccn1CC1CCc2c(c3ccccc3n2C)C1=O (stereo not given) [ondansetron] | 8.96%
NC(=O)c1cc[n+](CC2=C(C(=O)[O-])N3C(=O)[C@@H](NC(=O)Cc4cccs4)[C@H]3SC2)cc1 [cefalonium] | 2.55%
O=C1C(O)=C(O)C(=O)C(O)=C1O [tetroquinone] | < 0%
CC(=O)NC[C@H]1CN(c2ccc(N3CCOCC3)c(F)c2)C(=O)O1 [linezolid] | 6.39%
CC(=O)O[C@]1(C(C)=O)CC[C@H]2[C@@H]3C=C(C)C4=CC(=O)CC[C@]4(C)[C@H]3CC[C@@]21C [megestrol acetate] | < 0%
Cc1c(C)c2c(c(C)c1O)CCC(C)(CCCC(C)CCCC(C)CCCC(C)C)O2 (stereo not drawn) [alpha-tochopherol] | 1.16%
Nc1nc(=O)[nH]cc1F [flucytosine] | 2.86%

4 entries picked at random from the list so far:
SMILES | motility inhibition on day 3
Cc1nccn1CC1CCc2c(c3ccccc3n2C)C1=O (stereo not given) [ondansetron] | 8.96%
CCCC(=O)Nc1ccc(OCC(O)CNC(C)C)c(C(C)=O)c1 (stereo not given) [acebutolol hydrochloride] | < 0%
CC1=CC(=O)c2ccccc2C1=O [menadione] | 98.9%
CC(=O)O[C@]1(C(C)=O)CC[C@H]2[C@@H]3C=C(C)C4=CC(=O)CC[C@]4(C)[C@H]3CC[C@@]21C [megestrol acetate] | < 0%

Additional results:

SMILES | motility inhibition on day 3
Nc1nnc(-c2cccc(Cl)c2Cl)c(N)n1 [lamotrigine] | 1.22%
CC[C@@]1(O)C(=O)OCc2c1cc1n(c2=O)Cc2cc3c(CN(C)C)c(O)ccc3nc2-1 [topotecan hydrochloride] | 12.5%
CCOc1cc(N)c([N+](=O)[O-])cc1C(=O)NC1CCN(CC2CC=CCC2)CC1 (stereo not given) [Cinitapride] | < 0%
Cc1nnc(SCC2=C(C(=O)O)N3C(=O)[C@@H](NC(=O)Cn4cnnn4)[C@H]3SC2)s1 [cefazolin sodium] | < 0%
O=c1[nH]c(=O)n([C@H]2C[C@H](O)[C@@H](CO)O2)cc1C(F)(F)F [trifluridine] | < 0%
COc1ccc2c3c1O[C@H]1C[C@@H](O)C=C[C@@]31CCN(C)C2 [galanthamine hydrobromide] | 14.6%
CCCC(=O)O[C@]1(C(=O)CO)CC[C@H]2[C@@H]3CCC4=CC(=O)CC[C@]4(C)[C@H]3[C@@H](O)C[C@@]21C [hydrocortisone butyrate] | < 0%
CC1(C)S[C@@H]2[C@H](NC(=O)COc3ccccc3)C(=O)N2[C@H]1C(=O)O [penicillin v potassium] | 7.18%
CC(C)NC(=N)NC(=N)Nc1ccc(Cl)cc1 [chlorguanide hydrochloride] | 29%
CN(C)CC[C@@H](c1ccc(Br)cc1)c1ccccn1 | 4.43%
CN(Cc1ccc(C(C)(C)C)cc1)Cc1cccc2ccccc12 [butenafine hydrochloride] | 9.77%
CCCCCCCCNC(C)C(O)c1ccc(SC(C)C)cc1 (stereo not given) [suloctidil] | 98.7%
C[C@H]1O[C@@H](O[C@H]2[C@@H](O)C[C@H](O[C@H]3[C@@H](O)C[C@H](O[C@H]4CC[C@@]5(C)[C@H](CC[C@@H]6[C@@H]5CC[C@]5(C)[C@@H](C7=CC(=O)OC7)CC[C@]65O)C4)O[C@@H]3C)O[C@@H]2C)C[C@H](O)[C@@H]1O [digitoxin] | 3.31%
CC(=O)CC(c1ccc([N+](=O)[O-])cc1)c1c(O)c2ccccc2oc1=O (stereo not given) [acenocoumarol] | < 0%
S=c1[nH]cnc2nc[nH]c12 [mercaptopurine] | 10.7%
Cc1cccc(Nc2ccncc2S(=O)(=O)NC(=O)NC(C)C)c1 [torsemide] | 3.49%
O=C(O)CCCC[C@@H]1CCSS1 [thioctic acid] | < 0%
COc1cc(NS(=O)(=O)c2ccc(N)cc2)nc(OC)n1 [sulfadimethoxine] | 27.7%
CC[N+](CC)(CC(=O)Nc1c(C)cccc1C)Cc1ccccc1 [denatonium benzoate] | 28.9%
CC1(C)O[C@@H]2[C@@H](CO[C@@]3(COS(N)(=O)=O)OC(C)(C)O[C@@H]23)O1 [topiramate] | 4.78%
CN(C)c1cc(NC(=O)CNC(C)(C)C)c(O)c2c1C[C@H]1C[C@H]3[C@H](N(C)C)C(O)=C(C(N)=O)C(=O)[C@@]3(O)C(O)=C1C2=O [tigecycline] | 23%
